Measurements taken from paper PMC3720870, “Chiral Hydroxylation at the Mononuclear Nonheme Fe(II) Center of 4-(S) Hydroxymandelate Synthase – A Structure-Activity Relationship Analysis” (PLoS ONE, 2013).

Molecular target: T1, Hms (Streptomyces coelicolor, UniProt Q9Z4X7)
T1 construct: gene SCO3229; full-length, C-terminal Strep-tag II kept, expressed in E. coli BL21(DE3) from pKYB1; monomer, ~45 kDa
T1 sequence (Q9Z4X7 1-371): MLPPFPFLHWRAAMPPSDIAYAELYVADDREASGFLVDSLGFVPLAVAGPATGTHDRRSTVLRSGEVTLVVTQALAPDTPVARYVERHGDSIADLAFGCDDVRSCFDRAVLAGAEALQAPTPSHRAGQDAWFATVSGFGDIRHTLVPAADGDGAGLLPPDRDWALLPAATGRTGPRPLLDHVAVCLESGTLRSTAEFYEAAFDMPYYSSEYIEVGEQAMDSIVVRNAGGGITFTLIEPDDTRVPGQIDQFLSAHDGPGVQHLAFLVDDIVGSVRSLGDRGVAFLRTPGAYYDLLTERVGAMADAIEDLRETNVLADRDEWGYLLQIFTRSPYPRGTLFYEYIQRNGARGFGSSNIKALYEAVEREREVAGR
Assay: O2 consumption, micro-optode, steady state
Format: biochemical
Settings: apparent constant at air saturation; 20 mM Tris/HCl pH 7.5, 25 °C; no added Fe(II)
Source text: O2 consumption, micro-optode, steady state on Hms

Km: 220 ± 80 µM
SMILES: O=C(O)C(=O)Cc1ccc(O)cc1 [HPP, p-hydroxyphenylpyruvic acid]
